# In article doi:10.1101/2021.02.14.431134:
# Amino acid sequences for entries named in this document (tags omitted).
# UniProt A5JYW9: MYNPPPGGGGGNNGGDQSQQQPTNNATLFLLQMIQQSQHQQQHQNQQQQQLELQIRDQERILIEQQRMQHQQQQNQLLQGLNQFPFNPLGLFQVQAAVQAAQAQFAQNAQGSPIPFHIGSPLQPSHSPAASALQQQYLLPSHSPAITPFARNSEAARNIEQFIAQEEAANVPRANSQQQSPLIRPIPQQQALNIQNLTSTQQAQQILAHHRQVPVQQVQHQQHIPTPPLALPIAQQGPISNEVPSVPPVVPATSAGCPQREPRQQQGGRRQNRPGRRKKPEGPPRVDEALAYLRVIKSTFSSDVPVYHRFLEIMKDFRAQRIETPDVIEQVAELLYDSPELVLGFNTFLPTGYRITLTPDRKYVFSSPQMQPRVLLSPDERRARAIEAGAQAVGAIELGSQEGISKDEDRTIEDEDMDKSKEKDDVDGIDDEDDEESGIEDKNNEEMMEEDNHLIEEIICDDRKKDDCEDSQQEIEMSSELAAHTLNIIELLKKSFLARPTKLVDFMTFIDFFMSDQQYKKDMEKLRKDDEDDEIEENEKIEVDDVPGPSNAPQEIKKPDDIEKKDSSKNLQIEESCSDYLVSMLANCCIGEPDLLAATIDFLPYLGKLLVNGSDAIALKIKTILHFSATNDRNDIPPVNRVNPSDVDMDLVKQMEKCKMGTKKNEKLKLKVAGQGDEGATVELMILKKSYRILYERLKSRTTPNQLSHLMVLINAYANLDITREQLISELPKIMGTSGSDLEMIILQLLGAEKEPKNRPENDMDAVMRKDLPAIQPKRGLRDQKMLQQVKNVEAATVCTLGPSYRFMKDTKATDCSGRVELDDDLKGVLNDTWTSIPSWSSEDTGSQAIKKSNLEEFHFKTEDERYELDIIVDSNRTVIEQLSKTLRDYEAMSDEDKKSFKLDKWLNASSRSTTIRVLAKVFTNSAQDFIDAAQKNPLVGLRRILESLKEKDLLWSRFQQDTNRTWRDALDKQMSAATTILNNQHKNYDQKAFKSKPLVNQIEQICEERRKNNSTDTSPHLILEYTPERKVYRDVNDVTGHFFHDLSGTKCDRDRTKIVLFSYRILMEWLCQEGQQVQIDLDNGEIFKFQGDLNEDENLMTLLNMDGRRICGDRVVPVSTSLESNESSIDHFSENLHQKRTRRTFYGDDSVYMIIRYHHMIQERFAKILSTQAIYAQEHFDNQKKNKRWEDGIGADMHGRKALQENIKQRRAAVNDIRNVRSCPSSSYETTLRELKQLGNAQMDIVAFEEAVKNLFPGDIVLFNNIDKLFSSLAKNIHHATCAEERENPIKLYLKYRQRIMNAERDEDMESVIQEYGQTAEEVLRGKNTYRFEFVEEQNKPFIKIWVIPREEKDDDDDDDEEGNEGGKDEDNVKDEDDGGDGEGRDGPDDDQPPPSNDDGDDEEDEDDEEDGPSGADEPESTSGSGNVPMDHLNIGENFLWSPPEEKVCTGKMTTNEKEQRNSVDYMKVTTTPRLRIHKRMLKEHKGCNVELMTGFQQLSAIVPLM
# UniProt O17695: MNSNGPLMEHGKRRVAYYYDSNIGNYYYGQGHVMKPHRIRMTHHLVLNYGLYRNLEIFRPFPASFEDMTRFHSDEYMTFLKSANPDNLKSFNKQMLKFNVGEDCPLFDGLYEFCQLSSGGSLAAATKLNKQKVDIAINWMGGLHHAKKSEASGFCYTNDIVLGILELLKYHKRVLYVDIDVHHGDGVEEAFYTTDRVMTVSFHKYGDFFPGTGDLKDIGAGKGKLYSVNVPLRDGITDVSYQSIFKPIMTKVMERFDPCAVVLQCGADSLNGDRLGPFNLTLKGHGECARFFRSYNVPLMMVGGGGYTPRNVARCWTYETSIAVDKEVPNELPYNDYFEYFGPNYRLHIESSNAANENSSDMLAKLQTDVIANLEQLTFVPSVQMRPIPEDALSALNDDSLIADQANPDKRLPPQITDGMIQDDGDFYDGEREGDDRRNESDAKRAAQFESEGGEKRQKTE
# No constants are given. Whether binding was seen depends on the method and setting. Binding seen in cells or lysates may run through a third protein. Here binding means that the protein was enriched with, or labelled near, the bait; the list need not be complete.
# T1: MRG-1::3xHA (C. elegans (endogenous in worms)) (UniProt A7DTF0)
# T1 sequence: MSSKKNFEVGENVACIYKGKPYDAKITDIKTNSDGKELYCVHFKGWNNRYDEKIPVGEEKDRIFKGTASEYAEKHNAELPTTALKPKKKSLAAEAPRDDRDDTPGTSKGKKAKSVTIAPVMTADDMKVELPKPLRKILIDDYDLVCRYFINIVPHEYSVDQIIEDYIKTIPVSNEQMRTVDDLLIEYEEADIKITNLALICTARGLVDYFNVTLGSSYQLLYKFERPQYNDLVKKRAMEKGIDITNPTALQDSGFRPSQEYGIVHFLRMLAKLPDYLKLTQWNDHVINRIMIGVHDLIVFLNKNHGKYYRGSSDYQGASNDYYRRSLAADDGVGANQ
# B1: SUMV-2 (protein, UniProt Q22992 1-1145)
# chain: MKPGRKSLPKKNRASNITEKMPTTSTEAQSSSSKNQDRCRSFSQELGVDDEPEEQQAPVATPKQTKKAQKTAKTTEEVKSPRKSARKSELKKPEPEEKAKEPRKSASKRKSSSLMNKDEPSTSTEAPSADVPGTSEASDEASEIQEAPENPNSALAIKKRLMGGGESSKSAPTKNPPKARKSNVKKPEKEAEALAPPEPPAEPQEAAETPAPEPLVPEKKPKIEDAPTTSSPKKSTPTSAPPTRASARVSKPNRLYADGSFNTEILGRTRITEQNPVKEAQAKESTPELADLPLPAGRRKSTAAPRAPPAPKPIPVINGVLRGYIPSVKVPLAEYEVDGEIINLNEGVNETMDTILAKVCEDGVEKHEDIDPKVVKAKKLAKIDYTKRLKLQVKKLDIQMRIKIPSTPEELGKRKRQAPKTDDFYWSAQSRTKLKGSSKEREETPAFDEESPIGGDEKRQQKARESISHLFDAEMDASIKEAKKYSVSFDKYIKPKITGALKHAKIKLMSRKRQSAEPDDFYYHELLVDQVSPSNSNVENVDVDVDIEETDDKVDPTEFEISEEGVIGIRDEAVDMAEQIALVIPRPTKHDGSPMSMDEIQMRAMEHVESRTKCLDGSLEIVLNQLGHEMAPPTRGVEEQGCQWHTVTSANAQALKNLYTIANNCTEDAITWTHQFMIENLEVHMLASYLSILKYAKRLNSSRFGYVISSTDQLDPEWTQVTSLLKSFVYKRHTEPGTEVLNNTIPYHRMTDTVFLLVPPTLTFGDHQRAPPRHHARIFRWLQSIGHQDSEFISFDEDIDATCSVAEYLSDVIVERICDKVRQKNKYRPNCNVVLVGYGASTYLIHRAANLVEGISAIISIGFPVMTSLGRRGTADDEILLTYCPTLFIVGAEGRRFNNEAITELRTSMISPSGLVVVGHSNDMILVPTSMLLRLGISQTVVFRMVLEKILDFLNLEPVRQQEFADLVPIELNNVFDLDSALLKSDKALSGLAFASSTHSASSSAAPSPVGASGRRATVTGAGSEDIAKRRKESIILSQQIAAPSISGPPPPAPSPRTEDRFLAFQNLVASTITTGDDMPRRASMGASPRVIERGDFRDHRPPPPPPLPILQNPVATPMSQQPPLPSPAPPPPRGPVDPASISLI
# Molecular target: T1, MRG-1::3xHA (C. elegans (endogenous in worms))
# Experiment: affinity purification with mass spectrometry
row,Molecule,binding
1,SIN-3 (from UniProt A5JYW9 1-1507),binds
2,"ATHP-1, AT Hook plus PHD finger transcription factor (C. elegans (endogenous in worms))",binds
3,HDA-1 (from UniProt O17695 1-461),binds
4,B1,binds
